From paper PMC3022576
No constants are given. Whether binding was seen depends on the method and setting. In cells and extracts the contact can be indirect.

Target: GST-MAP4K3 fusion protein (complete Drosophila CG7097 isoform B) (Drosophila melanogaster)
Experiment: pull-down; GST-MAP4K3 or GST (same amounts, 50 µl) with 10 µl of S^35-Met labelled in vitro translation, over-night at 4°C in 20 mM Tris-HCl pH 8, 150 mM NaCl, 1 mM EDTA, 0,5% NP40; 10% SDS-PAGE and autoradiography; only the target purified

binding: no binding
B1: Rheb (in vitro translated) (protein, UniProt Q9VND8 1-182)
chain: MPTKERHIAMMGYRSVGKSSLCIQFVEGQFVDSYDPTIENTFTKIERVKSQDYIVKLIDTAGQDEYSIFPVQYSMDYHGYVLVYSITSQKSFEVVKIIYEKLLDVMGKKYVPVVLVGNKIDLHQERTVSTEEGKKLAESWRAAFLETSAKQNESVGDIFHQLLILIENENGNPQEKSGCLVS
modifications: radiolabeled with S^35-Met
